Assay results taken from publication doi:10.64898/2025.12.15.694324.
Changes are numbered by the printed parent chain. Names may count otherwise. No constants are given. Whether binding was seen depends on the method and setting. Binding seen in cells or lysates may run through a third protein. Some results given as binding are weak or reduced against the parent protein; the word gives no strength. Where a sequence is shown, tags or fusion partners need not be part of it. One block for each binder: values may come before it.

Biological target: T1, GFP-tagged PARP15^FL H559Y (human) (UniProt Q460N3)
T1 sequence: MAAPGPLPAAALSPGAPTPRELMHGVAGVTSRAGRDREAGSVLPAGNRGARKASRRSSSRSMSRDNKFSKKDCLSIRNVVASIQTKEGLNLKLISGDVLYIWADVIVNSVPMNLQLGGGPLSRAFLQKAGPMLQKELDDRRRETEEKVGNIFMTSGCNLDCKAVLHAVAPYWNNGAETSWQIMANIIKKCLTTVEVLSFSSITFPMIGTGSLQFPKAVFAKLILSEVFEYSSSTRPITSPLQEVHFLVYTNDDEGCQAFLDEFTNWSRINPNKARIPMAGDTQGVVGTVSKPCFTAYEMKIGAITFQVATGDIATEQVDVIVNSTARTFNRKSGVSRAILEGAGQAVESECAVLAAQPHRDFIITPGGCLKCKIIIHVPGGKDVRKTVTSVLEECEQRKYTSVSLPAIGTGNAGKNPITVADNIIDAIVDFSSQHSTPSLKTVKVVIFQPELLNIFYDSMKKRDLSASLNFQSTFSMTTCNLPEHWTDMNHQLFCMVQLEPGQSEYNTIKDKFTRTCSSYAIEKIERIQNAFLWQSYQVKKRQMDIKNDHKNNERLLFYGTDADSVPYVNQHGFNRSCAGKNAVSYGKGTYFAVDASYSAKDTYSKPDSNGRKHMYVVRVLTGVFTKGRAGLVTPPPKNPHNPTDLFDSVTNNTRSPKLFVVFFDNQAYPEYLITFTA
Assay: co-IP

- binding: binds
B1: HA-tagged PARP15^FL H559Y (enzyme, UniProt Q460N3 1-678)
chain: T1 sequence

- binding: no binding
B2: HA-PARP15^FL H559Y D665R (enzyme, UniProt Q460N3 1-678)
chain: T1 sequence with D665R
